Laboratory results reported in PubChem BioAssay AID504467 (National Center for Advancing Translational Sciences (NCATS), 2011).
Among all 330,000 compounds or so, about 7,700 (2.3%) were called active. Inconclusive means that the source gave no clear call. Such entries were picked first, then a sample of the others. Calls come from the whole dose curve; as a rule, active = well fitted inhibition curve with a large enough effect; inconclusive = small, poorly fitted or top-dose-only effect, or effect the other way; inactive = flat fitted curve, though single readings scatter. Where the call is inconclusive, the potency comes from a doubtful curve fit.

test: qHTS screen for small molecules that inhibit ELG1-dependent DNA repair in human embryonic kidney (HEK293T) cells expressing luciferase-tagged ELG1; details: HEK293T ELG1-luciferase reporter, luminescence, 16 h, DNA damage induced by 5-fluorouridine; series mostly up to 46.1 µM; note: nearly all actives have a fitted effect of over 55% in size
In short: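 Step one: seed 2,000 cells per well. Step two: pin-transfer compound or DMSO alongside 5-fluorouridine. Step three: incubate 16 hr, 37 °C, 5% CO2. Step four: add ONE-Glo, wait 30 min, read luminescence.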
Potency is the fitted concentration of half-maximal effect.

| SMILES | Potency |
| --- | --- |
| CCC1=C(C(=O)OC)C(c2cc(OC)ccc2OC)C(C#N)=C(N)O1 (stereo not given) | inconclusive: 18.4 µM [inhibitor, single point] |
| Nc1ccc(C(=O)Nc2nc3ccccc3s2)cc1 | inconclusive: 0.461 µM [activator, full curve] |
| COc1ccc(CNC(=O)Nc2cccc(Cl)c2)cc1 | inconclusive: 20.6 µM [activator, partial curve] |
| CCOc1ncccc1C(=O)OCC(=O)NCCCc1ccccc1 | inactive |
| Nc1c(NC(=O)CC[n+]2ccccc2)cccc1[N+](=O)[O-] | inconclusive: 20.6 µM [activator, partial curve] |
| COc1cccc(-c2cc(=O)c3cc(NC(=O)c4ccc(N(C)C)cc4)ccc3[nH]2)c1 | inactive |
| CC1(C)Cc2nc(-c3ccccc3)nc(SCC(=O)N3CCCC3)c2CO1 | inconclusive: 23.1 µM [inhibitor, single point] |
| CC(=O)c1cccc(NC(=O)C(C)N(C)CC(=O)Nc2ccc(Cl)cc2)c1 (stereo not given) | inconclusive: 18.3 µM [inhibitor, partial curve] |
| CC(C)c1ccc(Cc2nnc(NCCCO)[nH]c2=O)cc1 | inactive |
| CCOC(=O)c1c(-c2ccccc2)csc1NC(=S)N(CC)CC | inconclusive: 9.2 µM [inhibitor, partial curve] |
| COc1cc(/C=N/NC(=O)C(C)n2nnc3ccccc32)ccc1O (stereo not given) | inconclusive: 23.1 µM [activator, single point] |
| CCN(CC)C(=O)[C@H]1C[C@H](CC(=O)NCCCN(C)C)C(=O)N2CCc3c([nH]c4cc(-c5ccco5)ccc34)[C@]12C | inconclusive: 18.3 µM [activator, partial curve, poor fit] |
| Cc1cccc2cc(CN(Cc3ccco3)C(=O)c3cccs3)c(=O)[nH]c12 | inconclusive: 17.8 µM [inhibitor, single point] |
| COc1ccc(-c2cc(C(F)(F)F)n3ncc(C(=O)N(C)Cc4ccccc4)c3n2)cc1 | active: 14.6 µM |
| Cn1cnnc1SCC(=O)NNC(=O)COc1ccc(Cl)cc1 | inactive |
| CCOC(=O)CSc1nc2sc3c(c2c(=O)n1-c1ccccc1)CCN(C)C3 | inconclusive: 0.184 µM [inhibitor, partial curve, poor fit] |
| Fc1cccc(Cl)c1CN1CCN(c2nc3ccccc3s2)CC1 | inconclusive: 16.4 µM [activator, partial curve] |
| CCOC(=O)Cc1csc(NC(=O)c2c(O)c3ccccc3n(CC(C)C)c2=O)n1 | inconclusive: 4.61 µM [inhibitor, full curve] |
| Cc1cc(=O)oc2cc(OC(C)C(=O)NCC3CCC(C(=O)O)CC3)ccc12 (stereo not given) | inconclusive: 2.06 µM [activator, partial curve, poor fit] |
| O=C(N/N=C/C(Cl)=C/c1ccccc1)c1ccccc1F | inconclusive: 9.2 µM [activator, partial curve] |
| CN(C)CCOCCOc1ccccc1-c1ccccc1 | inactive |
| O=c1c2c(-c3ccc(Cl)cc3)csc2ncn1/N=C/c1cccc([N+](=O)[O-])c1O | inactive |
| COc1ccc(C(=O)c2cc([N+](=O)[O-])ccc2N2CCN(C)CC2)cc1 | inconclusive: 4.11 µM [inhibitor, single point] |
| O=C(NC1CCSc2ccccc21)c1cccc(Br)c1 (stereo not given) | inactive |

Sorted by molecular weight (smallest number first): part of the list above.

| SMILES | Potency |
| --- | --- |
| O=C(N/N=C/C(Cl)=C/c1ccccc1)c1ccccc1F | inconclusive: 9.2 µM [activator, partial curve] |
| CCOc1ncccc1C(=O)OCC(=O)NCCCc1ccccc1 | inactive |
| Fc1cccc(Cl)c1CN1CCN(c2nc3ccccc3s2)CC1 | inconclusive: 16.4 µM [activator, partial curve] |

Among those listed so far, three have fluorine.

| SMILES | Potency |
| --- | --- |
| COc1ccc(-c2cc(C(F)(F)F)n3ncc(C(=O)N(C)Cc4ccccc4)c3n2)cc1 | active: 14.6 µM |
| Fc1cccc(Cl)c1CN1CCN(c2nc3ccccc3s2)CC1 | inconclusive: 16.4 µM [activator, partial curve] |
| O=C(N/N=C/C(Cl)=C/c1ccccc1)c1ccccc1F | inconclusive: 9.2 µM [activator, partial curve] |

Later entries:

| SMILES | Potency |
| --- | --- |
| CCN(CC)c1ccc(-c2sc(Nc3ccccc3)n[n+]2-c2ccc(F)cc2)cc1 | inconclusive: 5.8 µM [inhibitor, single point] |
| CC1CN(C(=O)c2cccc(S(=O)(=O)Nc3ccc(Cl)cc3)c2)CC(C)O1 (stereo not given) | inconclusive: 23.1 µM [inhibitor, partial curve, poor fit] |
| CC(C)c1ccc(C2c3[nH]c4ccccc4c3C[C@H]3C(=O)N(c4ccccc4C(=O)N4CCC(C(=O)O)CC4)C(=O)N23)cc1 (stereo not given in full) | inconclusive: 29.1 µM [activator, single point] |
| O=C1CC(c2ccccc2)CC(O)=C1C=Nc1ccccc1Cl (stereo not given) | inactive |
| COc1ccccc1-n1cc(-c2ccccc2)c2c(=S)nc[nH]c21 | inactive |
| CN(CCOc1ccccc1)C(=O)c1cc(-c2ccco2)nc2ccccc12 | inconclusive: 23.1 µM [inhibitor, partial curve, poor fit] |
| O=C(Nc1nc(-c2ccccc2)cs1)C1CCCN(S(=O)(=O)c2ccccc2)C1 (stereo not given) | active: 2.31 µM |
| NC(=O)c1nsc(C(=O)N(c2ccccc2)C(C(=O)NC2CCCC2)c2cccs2)c1N (stereo not given) | inconclusive: 29.1 µM [activator, single point] |
| CCc1ccc(/C=N/NC(=O)c2cc(C3CC3)nc3ccc(Br)cc23)s1 | active: 7.31 µM |
| Cc1ccc2c(c1)Sc1ccccc1CC2=O | inconclusive: 25.9 µM [activator, partial curve, poor fit] |
| COc1cc(S(=O)(=O)NCC2CCCO2)c(OC)cc1Cl (stereo not given) | inactive |
| COc1ccc(-c2nnc(SCC(=O)Nc3ncc(C)s3)n2-c2ccccc2)cc1OC | active: 20.6 µM |
| Cc1ccc(NC2=C([N+](=O)[O-])CS(=O)(=O)C2)cc1 | inconclusive: 20.6 µM [activator, single point] |
| O=c1cccc(-c2ccccc2)[nH]1 | inconclusive: 12.6 µM [activator, single point] |
| COCC1CCCCN1C(=O)c1cc(COc2ccc3ncccc3c2)on1 (stereo not given) | inconclusive: 3.66 µM [inhibitor, partial curve, poor fit] |
| CCOc1ccc(C(=O)NCc2ccccc2OC)cc1 | inconclusive: 23.1 µM [activator, single point] |
| COC(=O)C1=C(C)N(Cc2ccccc2)C(=NCCc2ccccn2)N[C@H]1c1cccc(F)c1 | inactive |
| COc1cccc(-c2nn(-c3ccccc3)cc2CN(C)C(C)c2ccncn2)c1 (stereo not given) | inconclusive: 23.1 µM [inhibitor, single point] |
| COc1cccc(NC(=O)Cn2c3ccccc3c3nc4n(c(=O)c32)CCS4)c1 | inconclusive: 23.1 µM [inhibitor, single point] |
| COC(CSc1nc(N)c2c3c(sc2n1)CN(C)CC3)OC | inconclusive: 16.4 µM [activator, partial curve] |
| CC(Sc1nc2ccccc2[nH]1)C(=O)NC1CCCCC1C (stereo not given) | inactive |
| COc1ccc(/C=C2\CCn3c2nc2cc(C(=O)O)ccc2c3=O)cc1O | inconclusive: 29.1 µM [activator, partial curve, poor fit] |
| CCc1ccccc1OCc1nc2ccc(S(=O)(=O)N3CCOCC3)cc2[nH]1 | inconclusive: 29.1 µM [inhibitor, partial curve, poor fit] |
| O=c1c2ccccc2c(C=Nc2ccc(O)cc2)c(O)n1-c1nccs1 | inconclusive: 18.3 µM [inhibitor, single point] |

| SMILES | Potency |
| --- | --- |
| CS(=O)(=O)NNC(=O)c1csc(Cc2c(Cl)sc3ccc(Cl)cc23)n1 | inactive |
| COc1cc(CC(=O)OCn2nnc3ccccc3c2=O)cc(OC)c1OC | inactive |
| COc1ccc(N2CC(C(=O)Nc3nc4ccc(F)cc4s3)CC2=O)c(OC)c1 (stereo not given) | inconclusive: 23.1 µM [inhibitor, partial curve] |
| CN(C)S(=O)(=O)c1cccc(NC(=O)CN2C(=O)NC(Cc3ccccc3)C2=O)c1 (stereo not given) | inactive |
| CCN(CC)CCNC(=O)CNC(=O)c1nn(-c2ccc(OC)c(OC)c2)c(=O)c2ccccc12 | inactive |
| Cc1ccc(NC(=O)C2COc3ccccc3O2)nc1 (stereo not given) | inconclusive: 9.2 µM [activator, partial curve] |
| Cc1cccc(Nc2ncnc3onc(-c4cccc(Cl)c4)c23)c1 | inactive |
| O=C(CCCOc1ccc(Cl)cc1Cl)Nc1cccnc1 | inconclusive: 32.6 µM [inhibitor, partial curve, poor fit] |
| COc1ccc(N(C)S(=O)(=O)c2ccc3c(c2)CC(C)N3C(=O)C2CC2)c(OC)c1 (stereo not given) | inconclusive: 29.1 µM [inhibitor, single point] |
| CN(C)c1c(F)cc(C(=O)NCc2ccccc2)cc1F | inactive |
| CCC1CCC(C(=O)NNC(=O)c2cc(-c3ccco3)[nH]n2)CC1 (stereo not given) | inactive |
| CC(=O)Nc1cccc(C(=O)/C=C/c2ccc(F)cc2)c1 | inconclusive: 16.4 µM [activator, single point] |
| Cn1nc(-c2ccc(N3CCCCC3)c(NC(=O)c3ccco3)c2)c2ccccc2c1=O | inconclusive: 29.1 µM [inhibitor, single point] |
| C/C(N)=C(/C#N)C(=O)COc1ncnc2ccccc12 | inactive |
| COc1cccc(C(=O)NCc2ccc3c(c2)OCO3)c1 | inconclusive: 23.1 µM [activator, partial curve, poor fit] |
| Cc1ccc(-c2csc(N(CCCN3CCOCC3)C(=O)c3ccco3)n2)cc1 | inconclusive: 35.5 µM [inhibitor, single point] |
| O=C(O)c1cccc(N2C(=O)c3cc([N+](=O)[O-])cc4cc([N+](=O)[O-])cc(c34)C2=O)c1 | inconclusive: 0.184 µM [inhibitor, partial curve] |
| Cc1nc(N(C)Cc2ccccc2)c2c(C)c(C)sc2n1 | inactive |
| CCn1nc(C)c(CNC(=O)c2cc(COc3ccc(F)cc3Cl)on2)c1C | inconclusive: 2.59 µM [inhibitor, full curve] |
| COc1ccc(C(=O)Nc2ccc(Nc3ccccc3)cc2)cc1OC | inactive |
| CCOC(=O)/C(=C/c1ccc(OC(=O)c2ccccc2)cc1)C(C)=O | inconclusive: 23.1 µM [activator, single point] |
| O=[N+]([O-])c1ccc(N2CCc3ccccc3C2)cc1 | inconclusive: 32.6 µM [activator, partial curve, poor fit] |
